Results are given in words; binding and its absence hold for the method and conditions named.
Molecular target: Recombinant purified His-ECRG4 protein (esophageal carcinoma related gene 4) (human) (UniProt Q9H1Z8)
Assay: ELISA; 'binding affinity assay': purified His-ECRG4 coated on 96-well plates (5 ug per well), BSA blocking; whole-cell lysate of EC9706 cells transfected with FLAG-ECRG1 added for 2 h; detection with anti-FLAG or anti-Miz-1 antibody, HRP secondary antibody, absorbance at 490 nm; only the target purified

Protein sequences, listed by entry. Tags and fused reporters are not part of them. Lines headed by an entry give the natural chain unless they say otherwise; changes in a name come on top.
UniProt Q9H1Z8: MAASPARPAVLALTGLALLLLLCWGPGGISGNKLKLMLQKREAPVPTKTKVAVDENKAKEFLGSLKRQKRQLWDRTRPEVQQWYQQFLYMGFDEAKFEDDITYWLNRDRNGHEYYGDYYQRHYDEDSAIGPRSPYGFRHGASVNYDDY

- binding: no binding
B1: Miz-1 (protein, UniProt Q13105 1-803)
chain: MDFPQHSQHVLEQLNQQRQLGLLCDCTFVVDGVHFKAHKAVLAACSEYFKMLFVDQKDVVHLDISNAAGLGQVLEFMYTAKLSLSPENVDDVLAVATFLQMQDIITACHALKSLAEPATSPGGNAEALATEGGDKRAKEEKVATSTLSRLEQAGRSTPIGPSRDLKEERGGQAQSAASGAEQTEKADAPREPPPVELKPDPTSGMAAAEAEAALSESSEQEMEVEPARKGEEEQKEQEEQEEEGAGPAEVKEEGSQLENGEAPEENENEESAGTDSGQELGSEARGLRSGTYGDRTESKAYGSVIHKCEDCGKEFTHTGNFKRHIRIHTGEKPFSCRECSKAFSDPAACKAHEKTHSPLKPYGCEECGKSYRLISLLNLHKKRHSGEARYRCEDCGKLFTTSGNLKRHQLVHSGEKPYQCDYCGRSFSDPTSKMRHLETHDTDKEHKCPHCDKKFNQVGNLKAHLKIHIADGPLKCRECGKQFTTSGNLKRHLRIHSGEKPYVCIHCQRQFADPGALQRHVRIHTGEKPCQCVMCGKAFTQASSLIAHVRQHTGEKPYVCERCGKRFVQSSQLANHIRHHDNIRPHKCSVCSKAFVNVGDLSKHIIIHTGEKPYLCDKCGRGFNRVDNLRSHVKTVHQGKAGIKILEPEEGSEVSVVTVDDMVTLATEALAATAVTQLTVVPVGAAVTADETEVLKAEISKAVKQVQEEDPNTHILYACDSCGDKFLDANSLAQHVRIHTAQALVMFQTDADFYQQYGPGGTWPAGQVLQAGELVFRPRDGAEGQPALAETSPTAPECPPPAE

— PMC3039630
